AC50 data for 69 compounds are collected here from PubChem BioAssay AID662 (National Center for Advancing Translational Sciences (NCATS), 2007).

“And” between values parts separate entries of the source, which are not always exact repeats. Identical values can stand only once. The list shows a part of the results. The main result of the screen is listed elsewhere. These columns were measured beside it and carry no call. Compounds called inactive in the main read-out are mostly missing here. Words in brackets tell the shape of the fitted curve; partial curves, single points and poor fits give uncertain potencies.

This assay can be described thus: Cell signaling CRE-BLA (Fsk stim). To be noted: CHO CRE-bla reporter (cAMP response element driving beta-lactamase), forskolin EC10, beta-lactamase ratio; measured here: 460 nm blue channel. Summed up: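 Cells were plated overnight at 37 °C, exposed to compound titrations plus EC10 NKH 477 for 3 h, then given CCF4 dye for 2 h at room temperature. Blue/green (460/530 nm) ratio was converted to %Activity and AC50 values calculated.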
By AC50 is commonly meant the midpoint of the concentration-response curve, whichever way the signal moves. Consider `CCOC(=O)Cc1nnc(NC(=O)CSc2nnc3c4ccccc4n(C(C)C)c3n2)s1`, for which the AC50 is 10 µM [rising, partial curve].

For the compound `NC(=O)c1cccn1Cc1ccccc1Cl`, the half-maximal activity concentration (AC50) was 5.01 µM [falling, single point].

As for `O=c1c2ccccc2nnn1Cc1nnc(-c2ccccc2Br)o1`, the AC50 is 12.6 µM [rising, single point].

As to `CCCCN(CCCC)C(=O)CSc1nnc(-c2cc(OC)c(OC)c(OC)c2)o1`, the AC50 was 12.6 µM [rising, partial curve].

`COc1ccc2c(Cl)c(-c3nnc4n3CCCCC4)sc2c1`: the half-maximal activity concentration (AC50) was 0.501 µM [falling, full curve].

In the case of `O=C(CCN1CCC(c2ccccc2)C1)c1cccs1` (centres undefined), the AC50 was 12.6 µM [falling, single point].

In the case of `O=C(Nc1ccc(OC(=O)c2ccncc2)cc1)c1ccncc1`, the AC50 is 0.0316 µM [falling, partial curve].

Consider `Cn1c(=O)c(-c2cc(F)cc(F)c2)nc2cncnc21`, for which the AC50 was 12.6 µM [rising, partial curve].

Consider `CCCCCCCNS(=O)(=O)c1cccc2c(Cl)cccc12`, for which the AC50 was 31.6 µM [falling, single point].

For the compound `CC1(C)OC(=O)C(=CNc2ncccn2)C(=O)O1`, the AC50 is 0.0158 µM [falling, full curve].

Regarding `O=C(Nc1ccc(N2CCN(C(=O)c3ccccc3)CC2)c(Cl)c1)c1ccco1`, the concentration at half-maximal activity (AC50) was 25.1 µM [falling, single point].

`Nc1nc2ccccc2n1/N=C/c1ccc(-c2ccccc2)o1`: the AC50 was 0.2 µM [falling, full curve].

In the case of `CN(C(=O)c1ccc2c(c1)OCO2)C1(C(=O)NC2CCCCC2)CCCCC1`, the AC50 is 10 µM [rising, single point].

Turning to `CC(=NC1CCCCC1)C1=C(O)c2ccccc2C1=O`, the AC50 was 15.8 µM [rising, single point].

Turning to `Cc1ccc2[nH]c(C)c(CN(C)C3CCN(C)CC3)c(=O)c2c1`, the AC50 was 0.398 µM [falling, full curve, poor fit].

Consider `O=C(Cn1cnc2c(nnn2Cc2ccc(F)cc2)c1=O)N1CCCc2ccccc21`, for which the AC50 was 0.0794 µM [falling, single point].

Take `CCSc1nc2c(c(=O)[nH]1)C(c1ccncc1)C(C(=O)OC(C)C)=C(C)N2` (centres undefined): the AC50 was 25.1 µM [rising, single point].

On to `COc1ccccc1C(=O)Nc1ccc(S(=O)(=O)Nc2cc(C)on2)cc1`, for which the concentration at half-maximal activity (AC50) is 10 µM [rising, single point].

Consider `CC(C)CCn1cnc2c(cnn2-c2ccc(F)cc2)c1=O`, for which the AC50 was 10 µM [rising, single point].

With `CC12CN3CCN(CC(C3)C1(O)CN1CCOCC1)C2` (centres undefined), the AC50 is 0.398 µM [rising, partial curve].

Turning to `CS(=O)(=O)N1CCN(c2nnc(-c3ccccc3)c3ccccc23)CC1`, the half-maximal activity concentration (AC50) is 0.316 µM [rising, full curve, poor fit].

On to `Cc1ccc2c(Cl)cc(Cl)c(OCc3c(C)noc3C)c2n1`, for which the AC50 is 1 µM [falling, single point].

Turning to `Cc1ccc2[nH]c(=O)c(CN(Cc3ccco3)S(=O)(=O)c3c(C)ccc4nsnc34)cc2c1`, the AC50 is 25.1 µM [falling, single point].

Turning to `O=C(C1CCN(S(=O)(=O)c2cccnc2)CC1)N1CCN(c2ccccc2Cl)CC1`, the AC50 was 0.398 µM [falling, full curve].

Regarding `CCCCCC(=O)O[C@H](CC(=O)O)C[N+](C)(C)C`, the AC50 was 31.6 µM [falling, single point].

On to `N[C@@H](COP(=O)(O)O)C(=O)O`, for which the AC50 is 25.1 µM [falling, single point].

Consider `CCOC(=O)c1cnn2c(C(F)F)cc(C3CC3)nc12`, for which the AC50 is 7.94 µM [rising, partial curve].

For `O=C(O)Cc1coc(-c2ccc(F)cc2)n1`, the AC50 was 0.00631 µM [falling, full curve, poor fit].

Consider `CCc1nnc(NC(=O)CSc2nc3c(c(=O)n2C)SC(C)C3)s1` (centres undefined), for which the AC50 is 2.51 µM [rising, full curve].

`CCCn1c(=NC(C)=O)c(C(=O)OCC)cc2c(=O)n3ccccc3nc21`: the AC50 is 10 µM [rising, partial curve].

Take `Fc1ccc(Nc2nc(-c3cccnc3)nc3ccccc23)cc1`: the AC50 is 10 µM [rising, partial curve].

For `CCC(CC)n1[nH]c(=O)c2c(C)cc(C)nc21`, the AC50 is 10 µM [rising, single point].

`COc1cccc(OC)c1C(=O)Nc1cc(Cl)ccc1N1CCOCC1`: the AC50 is 0.794 µM [rising, full curve, poor fit].

With `Cc1ccc2nc(-c3ccc(N)cc3)sc2c1S(=O)(=O)O`, the AC50 was 25.1 µM [rising, partial curve].

Regarding `CC1(C)Cc2ccccc2-c2nc(NCCCO)n(-c3ccccc3)c(=O)c21`, the AC50 was 2.51 µM [rising, partial curve].

For the compound `CC(C)NC(=O)CSCc1ccccc1Cl`, the AC50 is 0.00316 µM [falling, full curve, poor fit].

In the case of `CCOC(=O)C1=C(C)NC(=O)NC1c1cccnc1` (centres undefined), the AC50 was 0.00316 µM [falling, full curve, poor fit].

Consider `COc1ccc(C2N=C(c3ccccc3)C(C)(C)N2O)cc1OC` (centres undefined), for which the AC50 is 1.58 µM [falling, partial curve].

Regarding `CCNc1ncc2nc(C)c(=O)n(C)c2n1`, the AC50 is 10 µM [rising, partial curve].

Take `Cc1nc(N2CCN(C(=O)c3ccco3)CC2)c2oc3ccccc3c2n1`: the AC50 is 2 µM [rising, full curve].

On to `COC(=O)Nc1c(-c2ccccc2)nc2ccccn12`, for which the half-maximal activity concentration (AC50) was 0.01 µM [falling, full curve].

As to `O=C(Nc1ccc([N+](=O)[O-])cc1Cl)c1cc(Cl)ccc1O`, the AC50 was 1 µM [falling, full curve] and 501 nM [falling, full curve, poor fit].

Take `COc1ccccc1NC(=O)CSc1nc2nc(C)cc(C)c2c(=O)[nH]1`: the AC50 is 10 µM [rising, partial curve].

In the case of `Cn1cccc1C(=O)N1CCC2(CCCN(Cc3ccccc3)C2)CC1`, the AC50 was 5.01 µM [falling, single point].

With `CCOc1ccc(Cc2nccc3cc(OCC)c(OCC)cc23)cc1OCC`, the concentration at half-maximal activity (AC50) was 1.26 µM [rising, full curve].

`Cc1ccc(-c2cc(C(F)(F)F)c(C#N)c(SCCC#N)n2)o1`: the AC50 is 3.16 µM [rising, partial curve].

Take `Cc1oc2nc(SCC(=O)N3CCCCC3)nc(N)c2c1C`: the AC50 is 3.98 µM [rising, full curve].

Consider `Cc1ccccc1-n1c(SCC(=O)c2cc(C)n(C)c2C)nnc1-c1ccncc1`, for which the AC50 is 12.6 µM [rising, partial curve, poor fit].

Consider `CC1(C)CC(=O)C(C=NCC2CCCO2)=C(O)C1` (centres undefined), for which the AC50 was 0.794 µM [rising, full curve].

Take `Cn1c(COc2ccccc2)nnc1SCC(=O)Nc1ccc(N2CCOCC2)c(Cl)c1`: the AC50 was 25.1 µM [rising, partial curve, poor fit].

For the compound `O=C(CCCSc1nc2ccccc2s1)Nc1nccs1`, the AC50 was 5.01 µM [falling, single point].

On to `COc1cccc(-c2cc(NCc3cccc(C)c3)ncn2)c1`, for which the AC50 was 2.51 µM [rising, full curve].

In the case of `CCOC(=O)C1CCN(C(=O)CSc2n[nH]c(=O)[nH]c2=O)CC1`, the concentration at half-maximal activity (AC50) was 3.98 µM [falling, partial curve].

As for `O=C(O)c1ccc(CSc2nnc(COc3ccc(Cl)cc3Cl)o2)cc1`, the AC50 was 15.8 µM [rising, single point].

On to `COc1cccc(Cn2c(=O)c(-c3cccc(C#N)c3)nc3cnc(Nc4ccccc4)nc32)c1`, for which the AC50 is 1.58 µM [rising, partial curve].

Take `CC(=O)Cc1nsc(NC(=O)c2ccc(-c3cccc(C(F)(F)F)c3)o2)n1`: the AC50 is 2.51 µM [falling, full curve].

On to `Cc1ccc2cccc(O)c2[n+]1[O-]`, for which the AC50 is 0.00398 µM [falling, full curve, poor fit].

As to `CCc1nnc(NC(=O)CSc2nc(-c3ccc(OC)cc3)ns2)s1`, the AC50 was 0.00398 µM [falling, full curve, poor fit].

Take `Cc1cnc(CNc2ccnc(-c3cccc(NS(C)(=O)=O)c3)n2)cn1`: the AC50 is 5.01 µM [rising, full curve].

On to `CC(=O)Nc1nn(C)c2nc3cc(C)ccc3cc12`, for which the AC50 was 15.8 µM [rising, partial curve].

In the case of `Cc1nc2nc3c(c(=O)n2[nH]1)CCC3`, the AC50 was 5.01 µM [rising, single point].

Take `O=c1c2c(-c3ccco3)csc2nc(SCc2cn3cccnc3n2)n1-c1ccccc1`: the AC50 is 1 µM [rising, partial curve].

With `COc1ccc(-c2nc3cnc(N4CCN(C)CC4)nc3n(Cc3ccc(F)cc3)c2=O)cc1`, the AC50 is 2.51 µM [rising, partial curve].

Take `Cc1ccccc1-c1nc(N2CCOCC2)c2ccccc2n1`: the AC50 was 5.01 µM [rising, full curve].

As to `COc1cccc(-c2nn(C)c3sc(C(=O)NCc4ccc(C)o4)cc23)c1`, the AC50 is 7.94 µM [rising, partial curve].

Turning to `CCc1nnc(NC(=O)CSc2nnc(-c3ccccc3NC(=O)c3ccccc3)o2)s1`, the AC50 was 25.1 µM [falling, single point].

As to `O=C(CC(C(=O)N1CCc2ccccc21)n1ccnc1)NCC1CCCO1` (centres undefined), the AC50 is 5.01 µM [falling, partial curve].

Consider `O=S(=O)(c1ccccc1)c1nc(-c2ccco2)oc1N1CCOCC1`, for which the AC50 is 0.1 µM [rising, single point].

With `CCn1cc(C(=O)NCc2ccco2)c(=O)c2cc(S(=O)(=O)N3CCCCCC3)ccc21`, the AC50 was 15.8 µM [rising, partial curve].
